Assay results from PubChem BioAssay AID1487 (National Center for Advancing Translational Sciences (NCATS), 2009).
Some of the results follow. The main result of the screen is listed elsewhere. These columns were measured beside it and carry no call. Most of these compounds were active or inconclusive in the main read-out, so they are no random draw. Words in brackets tell the shape of the fitted curve; partial curves, single points and poor fits give uncertain potencies.

Assay: qHTS Assay for Modulators of Lamin A Splicing
Conditions: HeLa LMNA splicing GFP/RFP minigene ratio, 48 h
Procedure, shortened: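 S3 HeLa cells stably expressing lamin A-EGFP splicing minigene plus DsRed2, 600 cells/well, 48 h compound exposure at 37C. Laser-scanning cytometry; analysed as GFP (500-530 nm)/RFP (575-640 nm) total intensity ratio; 0.5% DMSO vehicle.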

[1] = measured here: GFP splicing reporter channel
[2] = measured here: RFP viability control channel

| SMILES | AC50 [1] | AC50 [2] |
| --- | --- | --- |
| O=C(c1cccc(F)c1)N1CCN(c2ccc([N+](=O)[O-])c3cccnc23)CC1 | 6.31 µM [falling, single point] |  |
| COC(=O)c1ccccc1NC(=O)COC(=O)c1ccccc1N=Nc1ccc(N(C)C)cc1 |  | 12.6 µM [rising, single point] |
| COC(=O)c1cc2ccsc2n1Cc1nc(-c2ccc(OC)cc2)oc1C |  | 25.1 µM [rising, single point] |
| CCN(CC)S(=O)(=O)c1ccc(NC(=O)C2c3ccccc3Oc3ccccc32)cc1 |  | 0.316 µM [rising, full curve, poor fit] |
| CN(C)c1ccc(N=Cc2nc(-c3ccccc3)oc2O)cc1 | 28.2 µM [falling, single point] | 12.6 µM [falling, single point] |
| CN(C(=O)CSc1nc2c(c(=O)[nH]1)CCC2)c1ccccc1 |  | 12.6 µM [rising, single point] |
| O=C(CCc1ccccc1)NC(=S)Nc1ccc2c(c1)C(=O)OC2 | 0.00891 µM [falling, full curve, poor fit] |  |
| COc1ccc(-n2c(N)c(C(=O)NCc3ccco3)c3nc4ccccc4nc32)cc1 |  | 4.47 µM [rising, full curve, poor fit] |
| Cc1ccc(-n2c(C)cc(/C=N/NC(=O)CN(c3ccc(C)cc3C)S(C)(=O)=O)c2C)cc1 | 15.8 µM [rising, partial curve, poor fit] | 2.51 µM [rising, partial curve] |
| CCN(CCn1cccn1)C(=O)CCc1nnc(CCc2ccccc2OC)o1 |  | 0.0126 µM [falling, full curve, poor fit] |
| CCCCn1c(SCc2nc3ccccc3s2)nc2cc(S(N)(=O)=O)ccc21 |  | 31.6 µM [rising, single point] |
| Cc1c(-c2ccccc2)nc2ccccc2c1C(=O)OCC(=O)Nc1ncc(C(F)(F)F)cc1Cl | 17.8 µM [rising, single point] |  |
| COc1ccccc1CNS(=O)(=O)c1ccc2c(c1)CC(C)N2C(=O)C1CCC1 (configuration not stated) | 0.1 µM [falling, full curve, poor fit] | 3.55 µM [falling, full curve] |
| COc1ccc(C2CC(c3ccc4ccccc4c3)=NN2C(=O)CSc2ncccn2)cc1 (configuration not stated) |  | 14.1 µM [rising, partial curve, poor fit] |
| C=CCNC(=O)C1CCN(c2ccc(S(=O)(=O)N3CCOCC3)cc2Cl)CC1 | 7.08 µM [falling, partial curve, poor fit] | 12.6 µM [falling, partial curve, poor fit] |
| CCOC(=O)c1ccc(Nc2nnc(C(C)(C)C)c(=O)[nH]2)cc1 |  | 35.5 µM [rising, single point] |
| CN(C)CCNS(=O)(=O)c1ccc(N2CCN(c3ccc(F)cc3)CC2)c([N+](=O)[O-])c1 | 25.1 µM [rising, single point] | 25.1 µM [rising, single point] |

| SMILES | AC50 [1] | AC50 [2] |
| --- | --- | --- |
| Cc1cccc(C)c1OCc1nnc(SCC(=O)Nc2nccs2)n1-c1ccccc1 | 3.98 µM [rising, single point] | 4.47 µM [rising, full curve, poor fit] |
| CC[C@H](C)[C@H](NC(=O)c1ccc(Cl)cc1)C(=O)OCC(=O)c1ccc2c(c1)NC(=O)CO2 | 35.5 µM [falling, single point] | 28.2 µM [falling, single point] |
| CC1CCN(S(=O)(=O)c2ccc(Cl)cc2Br)CC1 |  | 35.5 µM [rising, single point] |
| Cc1ccc(NC(=O)Nc2cccc([N+](=O)[O-])c2)cc1F | 17.8 µM [rising, partial curve] | 20 µM [rising, partial curve] |
| NC1=NC(S)C2N=CN=C2N1 (configuration not stated) | 5.01 µM [rising, full curve] | 0.0891 µM [rising, full curve, poor fit] |
| CCC(C)NC(=O)CNC(=S)N(Cc1ccc(F)cc1)C1CCCCC1 (configuration not stated) | 35.5 µM [falling, single point] | 35.5 µM [falling, single point] |
| CSCCC(NS(=O)(=O)c1ccc(Cl)cc1)C(=O)OCC(=O)c1c(C)[nH]c2ccccc12 (configuration not stated) | 2 µM [rising, single point] | 35.5 µM [falling, single point] |
| Cc1cccc(-n2ncc3c(NCCCN4CCCC4=O)ncnc32)c1 | 0.178 µM [falling, partial curve] |  |
| CC(C)CCNC(=O)CCCc1ccccc1 | 0.141 µM [rising, full curve, poor fit] | 0.158 µM [rising, full curve] |
| COC(=O)c1sccc1S(=O)(=O)N(CC(=O)Nc1ccc(C)c(F)c1)c1ccc(C)c(C)c1 | 7.94 µM [falling, partial curve, poor fit] |  |
| CCCNc1ncnc2c1c(-c1ccccc1)cn2-c1ccc(OCC)cc1 | 0.0141 µM [rising, full curve, poor fit] | 0.2 µM [rising, full curve, poor fit] |
| COc1ccc(NC(=O)CCn2c(-c3ccc(F)cc3)cc(C(C)=O)c2C)c(OC)c1 | 0.01 µM [rising, full curve, poor fit] |  |
| CCc1ccc(CNC(=O)c2sc3nc[nH]c(=O)c3c2C)cc1 |  | 0.0398 µM [falling, full curve, poor fit] |
| O=C(c1ccc2c(c1)N(Cc1cccc(Cl)c1)C(=O)c1ccccc1S2(=O)=O)N1CCN(c2ccccn2)CC1 | 1 µM [falling, full curve] | 10 µM [rising, single point] |
| C#CCOCCOCCOCCNc1nc(N2CCOCC2)nc(N2CCN(C(=O)[C@H]([C@@H](C)CC)n3cc(CCCCN)nn3)CC2)n1 |  | 0.0282 µM [rising, single point] |
| C=CCNC(=S)N1CCN(c2ccc([N+](=O)[O-])cc2)CC1 |  | 0.0112 µM [rising, full curve, poor fit] |

A second format for eight compounds above:
SMILES | AC50 [1] | AC50 [2]
COc1ccc(-n2c(N)c(C(=O)NCc3ccco3)c3nc4ccccc4nc32)cc1 |  | 4.47 µM [rising, full curve, poor fit]
Cc1c(-c2ccccc2)nc2ccccc2c1C(=O)OCC(=O)Nc1ncc(C(F)(F)F)cc1Cl | 17.8 µM [rising, single point] | 
CC[C@H](C)[C@H](NC(=O)c1ccc(Cl)cc1)C(=O)OCC(=O)c1ccc2c(c1)NC(=O)CO2 | 35.5 µM [falling, single point] | 28.2 µM [falling, single point]
CC1CCN(S(=O)(=O)c2ccc(Cl)cc2Br)CC1 |  | 35.5 µM [rising, single point]
Cc1cccc(-n2ncc3c(NCCCN4CCCC4=O)ncnc32)c1 | 0.178 µM [falling, partial curve] | 
O=C(c1ccc2c(c1)N(Cc1cccc(Cl)c1)C(=O)c1ccccc1S2(=O)=O)N1CCN(c2ccccn2)CC1 | 1 µM [falling, full curve] | 10 µM [rising, single point]
C#CCOCCOCCOCCNc1nc(N2CCOCC2)nc(N2CCN(C(=O)[C@H]([C@@H](C)CC)n3cc(CCCCN)nn3)CC2)n1 |  | 0.0282 µM [rising, single point]
C=CCNC(=S)N1CCN(c2ccc([N+](=O)[O-])cc2)CC1 |  | 0.0112 µM [rising, full curve, poor fit]
